{"sequences": {"note": "By UniProt entry, the sequences of proteins in these tests, tags left out. Residues count along the entry.", "UniProt P46934, 840-873 limits assumed": "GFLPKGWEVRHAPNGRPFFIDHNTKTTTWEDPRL"}, "source": "patent EP3381905A1", "about": "“NOVEL ANTIVIRAL COMPOUNDS” (priority 2017, dated 2018)", "key": {"WW3-domain of NEDD4": {"molecular_target": "WW3-domain of NEDD4 (Homo sapiens, UniProt P46934)"}, "[1]": {"tested_on": "GFP expressing HAd-C5 vector", "test": "fluorescent plaque forming assay (adenoviral propagation / virus spread)", "type": "cell-based, adenovirus", "conditions": "5 µM, compared to the DMSO negative control (Example 8, Figure 6)"}, "[2]": {"tested_on": "MARV VP40 containing the wild type (wt) VP40 of Marburg virus (VP40WT)", "type": "cell-based"}}}
{"compound": "Clc1ccc(CSC(Cn2ccnc2)c2ccc(Cl)cc2Cl)cc1", "note": "(stereo not shown) [Sulconazole]", "values": [{"measurement": "interaction with the NEDD4 peptide (chemical shift changes)", "setting": "WW3-domain of NEDD4", "value": "interacts with the NEDD4 peptide"}, {"measurement": "inhibition of MARV replication depending on time of addition", "setting": "MARV", "value": "occurred irrespective of the time the drug was added"}, {"measurement": "anti-adenoviral activity (plaque size)", "setting": "[1]", "value": "effective anti-adenoviral activity"}, {"measurement": "VP40 VLP release", "setting": "[2]", "value": "inhibit"}]}
